± gives the standard deviation. Only a part is listed here, and it is no random draw. The uncertainty is large for many entries.
Assays:
[1] = tested on: MILI (PIWIL2) piRISC loaded with piRNA #1 (26 nt); assay: pre-steady-state target cleavage rate (min^-1); MIWI and MILI are mouse PIWI proteins and EfPiwi is from a freshwater sponge; tags in brackets are library labels; higher = faster piRNA-guided slicing of the target; conditions: guide: piRNA #1 5'p-UGAGGUAGUAGGUUGUAUAGUAUCCA; auxiliary factor: 500 nM mouse GTSF1
How it was run: (§1)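 A burst-and-steady-state fit was used to obtain the pre-steady-state cleavage rate. The input data were sequencing reads of uncleaved targets, normalised to depth and to weakly complementary targets, from a […] transcribed, DNA-blocked target RNA library mixed with 1 nM active affinity-purified piRISC holding one synthetic guide, with or without 500 nM GTSF1 partner protein, in HEPES–potassium acetate buffer at 33 °C for 0–8 or 0–960 min. Three trials were pooled and k3 was capped at 0.0001 min^-1.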

[2] = tested on: MIWI (PIWIL1) piRISC loaded with piRNA #1 (30 nt); assay: as above; conditions: guide: piRNA #1 5'p-UGAGGUAGUAGGUUGUAUAGUAUCCAGAGG; auxiliary factor: 500 nM mouse GTSF1
How it was run: as §1
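Also: 1 nM active piRISC with 0.1 nM target library at 33 °C single turnover.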

Sequence | pre-steady-state target cleavage rate [1] | pre-steady-state target cleavage rate [2]
GGAGACCUAUGAUUACUACCUACUACCACA | 0.00253 ± 0.0037 | 0.000195 ± 0.011
GGAGACCUAUGAUAUGAUCGUACUACCUCA | 0.000395 ± 0.012 | 0.000568 ± 0.01
GGAGACCUAUGAAUACAACCUACUUCGUCA | 0.00141 ± 0.0038 | 0.000247 ± 0.0085
GGAGACCUAACUAUAAACCUACUACCUCA | 0.00232 ± 0.0058 | 0.000842 ± 0.01
GGAGACCUAUGAUAUCAACUUACUACCUCA | 0.00319 ± 0.0027 | 0.000336 ± 0.011
GGAGACCUAUGAUAUGUUGCUAACUACCUCA | 0.000699 ± 0.0077 | 0.00155 ± 0.0042
GGAGACCUAUGAAUACAAACCUACUACCUCA | 0.00105 ± 0.0043 | 0.000176 ± 0.014
GGAGACCUAUGAUAUCAACCUACUUCCUCA | 0.00124 ± 0.0035 | 0.000171 ± 0.011
GGAGACCUAUGAAUACGAACCUACUACCUCA | 0.000331 ± 0.013 | 0.000988 ± 0.0051
GGAGACCUAUGUACUACAACCUACUACCUCA | 0.00901 ± 0.0026 | 0.00169 ± 0.004
GGAGACCUAUGAUAUGUAGCUAGUACCUCA | 0.000126 ± 0.02 | 0.000322 ± 0.011
GGAGACCUAUGAUAUCAACCUACUACGCUCA | 0.00163 ± 0.0054 | 0.00026 ± 0.0097
GGAGACCUAUGAUAUGUUGGUACUACGUCA | 0.0001 ± 0.035 | 0.000131 ± 0.026
GGAGACCUAACUAUACAUGGUACUACCUCA | 0.00174 ± 0.0088 | 0.00061 ± 0.013
GGAGACCUAUGAUAUGUACCUACUACAUCA | 0.000441 ± 0.013 | 0.000541 ± 0.0084
GGAGACCUAUGAUUACUUCCUACUACCUCA | 0.00257 ± 0.0031 | 0.000989 ± 0.0053
GGAGACCUAUGAUUUCAACGUACUACCUCA | 0.00221 ± 0.0036 | 0.00032 ± 0.0076
GGAGACCUAUGUAUACAACCUGACUACCUCA | 0.00157 ± 0.004 | 0.000177 ± 0.015
GGAGAGGAUACUAUACACACCUACUACCUCA | 0.00289 ± 0.0044 | 0.00126 ± 0.0075
GGAGACCUAUGAUAACAACCUACUACUCUCA | 0.00358 ± 0.0038 | 0.00147 ± 0.0043
GGAGACCUAUGAUAUCAACCUACUACCUGA | 0.00102 ± 0.0036 | 0.000168 ± 0.009
GGAGACCAUACUAUACAUACCUACUACCUCA | 0.0032 ± 0.0048 | 0.000961 ± 0.011
GGAGACCUAUGAAUACAACGAUCUACCUCA | 0.000763 ± 0.006 | 0.000317 ± 0.012
GGAGACCUAUGAUAUCAACCAUACUACCUCA | 0.000131 ± 0.022 | 0.000229 ± 0.01
GGAGACCUAUGAUAUGUUCCACUACCUCA | 0.000202 ± 0.015 | 0.0018 ± 0.0027
GGAGACCUAUGAUAUGUUGGUACUACCUCCA | 0.000262 ± 0.022 | 0.000455 ± 0.0097
GGAGACCUAUGUAUUCAACCUACUUCCUCA | 0.00515 ± 0.0026 | 0.000235 ± 0.01

3 successive entries from above, for reference:
Sequence | pre-steady-state target cleavage rate [1] | pre-steady-state target cleavage rate [2]
GGAGACCUAUGAUUUCAACGUACUACCUCA | 0.00221 ± 0.0036 | 0.00032 ± 0.0076
GGAGACCUAUGUAUACAACCUGACUACCUCA | 0.00157 ± 0.004 | 0.000177 ± 0.015
GGAGAGGAUACUAUACACACCUACUACCUCA | 0.00289 ± 0.0044 | 0.00126 ± 0.0075

(continued)

Sequence | pre-steady-state target cleavage rate [1] | pre-steady-state target cleavage rate [2]
GGAGACGAUACUAUACAACCCUACUACCUCA | 0.0031 ± 0.0035 | 0.000775 ± 0.0088
GGAGACCUAUGAUAUGUUGCUACGUACCUCA | 0.000563 ± 0.011 | 0.000314 ± 0.015
GGAGACCUAUGAUUACAACCUUCUACCUGA | 0.000961 ± 0.0044 | 0.000335 ± 0.006
GGAGACCUAUGAAUAACAACCUACUACCUCA | 0.00368 ± 0.0026 | 0.00125 ± 0.0055
GGAGACCUAUGAUAUCAACGAUCUACCUCA | 0.000753 ± 0.0095 | 0.000775 ± 0.0084
GGAGACCUAUGAUUACAACGUUCUACCUCA | 0.0016 ± 0.0034 | 0.000273 ± 0.0059
GGAGACCUAUGAUAUCAACCUACUACCUCG [g2:g15:cont:t1G] | 0.00273 ± 0.0036 | 0.000901 ± 0.0064
GGAGACCUAUGAUAUGUUGCAACAACCUCA | 0.000355 ± 0.019 | 0.000216 ± 0.021
GGAGACCUAUGAUAUGAACCUCACUACCUCA | 0.000118 ± 0.032 | 0.0002 ± 0.014
GGAGACCUAUGUAUAGAACCUACUAGCUCA | 0.00212 ± 0.0036 | 0.000411 ± 0.0062
GGAGACCUAUGAUUACAACCUACUAUCCUCA | 0.00664 ± 0.0027 | 0.00234 ± 0.0033
GGAGACCUAUCUAUACAACCUACUCCUCA | 0.00284 ± 0.003 | 0.000787 ± 0.0057
GGAGUGGAUACUAUACAACCUAGUAGCUCA | 0.00033 ± 0.0094 | 0.000461 ± 0.0078
GGAGACCUAUGAUAUCAACCUCUACCUCA | 0.0001 ± 0.04 | 0.000218 ± 0.013
GGAGACCUAUGAAUACAACCUACUUGCUCA | 0.00181 ± 0.0042 | 0.000309 ± 0.0054
GGAGACGAUACUAUACAUGCUACUACCUCA | 0.115 ± 0.01 | 0.755 ± 0.037
GGAGACCUAUGAUAUGUACCUGCUACCUCA | 0.000108 ± 0.022 | 0.00013 ± 0.014
GGAGACCUAUGAUAUGUUCCUUCUACGUCA | 0.00016 ± 0.022 | 0.000335 ± 0.011
GGAGACCUAUGAUAUCAACCUACUACCCUCA | 0.00107 ± 0.0048 | 0.000277 ± 0.0083
GGAGACCUAUGAUAUGUACCACUACCUCA | 0.000202 ± 0.012 | 0.00052 ± 0.0038
GGAGACCUAUGUAAAGAACCUACUACCUCA | 0.00135 ± 0.0036 | 0.000227 ± 0.0089
GGAGACCUAUGAUAUCAACCUACAUGGAGA [g8:g15:cont:t1A] | 0.000409 ± 0.013 | 0.000224 ± 0.016
GGAGACCUAUGAUAUCAACCAAGUACCUCA | 0.000469 ± 0.0069 | 0.000505 ± 0.0042
GGAGACCUAUGAAUACAACCUACUACCCA | 0.00166 ± 0.0043 | 0.000607 ± 0.0072
GGAGACCUAUGAUAUGUUCCUACUACCUCC [g2:g12:cont:t1C] | 0.00013 ± 0.021 | 0.000188 ± 0.011
GGAGACCUAUGAUUACAACCUUCUACCACA | 0.00204 ± 0.0026 | 0.000393 ± 0.0048
